Primary screen of a compound library

Source: ChEMBL document CHEMBL3988442, “University of Dundee, Small-Polar-MMV Screening Library” (2021).

Results are given as percent effect.
The record does not define 0% and 100%; most values in the screen are far below 50% and negative numbers occur (in some assays of this library far below -100).
Compounds were drawn at random from those tested, without regard to their results.
Two or more numbers in one place are separate tests of the same structure; such repeats can differ widely.

Mtb cholesterol medium: 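Whole-cell growth test on Mycobacterium tuberculosis, read after 4 days in a medium based on cholesterol and the lipid DPPC; the read-out is not stated. Compounds at 50 µM. The record gives no direction; compounds that gave an IC50 in retests scored well above the rest, so higher reads as more growth inhibition. Size under these conditions: about 69,000 compounds, about 370 of them at 50% or above in at least one test.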
Mtb glucose medium: 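Whole-cell growth test on Mycobacterium tuberculosis, read after 3 days in glucose-containing 7H9 medium; the read-out is not stated. Concentration: 50 µM. Higher reads as more growth inhibition (inferred: compounds with an IC50 in retests scored well above the rest). Of about 69,000 compounds tested this way, about 760 (1.1%) reached 50% or more in at least one test.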

For [H][C@@]12C[C@H](C(=O)NCc3cccnc3)[C@@]([H])(CN(CC)C1)O2 the result was Mtb cholesterol medium: 0.007705%; Mtb glucose medium: 4.518%.
For Cc1ccc(C)c2c(C)c(C(=O)NCCCn3ccnn3)[nH]c12 the result was Mtb cholesterol medium: -37.19%; Mtb glucose medium: -41.1%.
For O=C(Nc1cccc(Cl)c1)c1nn(C2CCS(=O)(=O)C2)c2c1CCCC2 (stereo not shown) the result was Mtb cholesterol medium: 6.788%; Mtb glucose medium: 5.424% & 2.683%.
For O=C(N1CCCC1)N1Cc2nccn2CC(CN2CCCC2)C1.O=C(O)C(F)(F)F (stereo not shown) the result was Mtb cholesterol medium: -10.82%; Mtb glucose medium: -30.8%.
For [H][C@@]12CN(C(=O)c3cccn3C)C[C@]1([H])C(=O)N(CC)C2 the result was Mtb cholesterol medium: -7.272%; Mtb glucose medium: -20.01%.
For Cc1ccc(CNC(=O)N2CCCCC2CCNS(C)(=O)=O)cc1 (stereo not shown) the result was Mtb cholesterol medium: -11.16%; Mtb glucose medium: -24.58%.
For [H][C@@]12CN(C(=O)c3cccnc3)C[C@]1([H])[C@@H]2CC(=O)Nc1cccnc1 the result was Mtb cholesterol medium: 6.774%; Mtb glucose medium: 42.76%.
For Cc1occc1C(=O)Nc1ccc(C(=O)NC[C@H]2CCCN2)cc1 the result was Mtb cholesterol medium: 17.27%; Mtb glucose medium: -0.2793% & 7.011%.
For O=C(NC1CC1)c1nc2c(o1)CN(c1ncccn1)C2 the result was Mtb cholesterol medium: -3.366%; Mtb glucose medium: -5.613% & -1.454%.
For CCc1nc(C)c(-c2nccn2CC2CC(=O)N(CC)C2)[nH]1 (stereo not shown) the result was Mtb cholesterol medium: -28.27%; Mtb glucose medium: 4.992%.
For Cc1ncsc1C(=O)N1CCN(Cc2ccccc2)CC1C (stereo not shown) the result was Mtb cholesterol medium: 41.24%; Mtb glucose medium: 10.32%.
For COc1cc(CN2CC[C@@]3(CCCO3)[C@@H](O)C2)ccc1F the result was Mtb cholesterol medium: -18.01%; Mtb glucose medium: 12.57%.
For Cc1cccc(CNC[C@H]2Cn3ccnc3CO2)n1 the result was Mtb cholesterol medium: -9.684%; Mtb glucose medium: -22.15% & -1.904%.
For O=C(O)C(F)(F)F.O=C(O)C(F)(F)F.c1cncc(COCc2nnc3n2CCN(Cc2cccs2)C3)c1 the result was Mtb cholesterol medium: -35.54%; Mtb glucose medium: -84.36% & -2.561%.
For CCc1nnc2n1CC(CNCc1nc(-c3ccsc3)no1)CC2 (stereo not shown) the result was Mtb cholesterol medium: -11.68%; Mtb glucose medium: -21.45%.
For CN1CC(C(=O)NC2(c3cccc(F)c3)CCOCC2)CC1=O (stereo not shown) the result was Mtb cholesterol medium: -0.4321%; Mtb glucose medium: 13.07%.
For CC(NC(=O)N(C)Cc1ccc2c(c1)OCO2)c1nncn1C (stereo not shown) the result was Mtb cholesterol medium: 0.4672%; Mtb glucose medium: 16.77%.
For CCCOCCNc1nc2c(s1)c(C)nn2C the result was Mtb cholesterol medium: -39.54%; Mtb glucose medium: -3.24% & 1.09%.
For CC(C)(C)CC(NC(=O)c1nc(=O)[nH][nH]1)c1ccc(F)cc1 (stereo not shown) the result was Mtb cholesterol medium: 9.2%; Mtb glucose medium: 8.162%.
For Cc1ccc(-n2cnnn2)cc1NCC(=O)Nc1cc(F)ccc1F the result was Mtb cholesterol medium: -22.87%; Mtb glucose medium: -12.66%.
For COCCN1CC2(CCCN(c3ncnc4[nH]cnc34)C2)CCC1=O (stereo not shown) the result was Mtb cholesterol medium: -9.92%; Mtb glucose medium: -1.365%.
For [H][C@@]12CCN(C(C)=O)C[C@]1([H])CCN(Cc1ccc3c(c1)OCO3)C(=O)C2 the result was Mtb cholesterol medium: -1.213%; Mtb glucose medium: -3.446% & 5.378%.
For [H][C@@]12CCN(C(=O)Cc3ccsc3)C[C@@]1([H])O[C@H](c1noc(C)n1)C2 the result was Mtb cholesterol medium: -19.52%; Mtb glucose medium: -0.03619%.
For [H][C@@]12CCCO[C@]1([H])[C@H](N(C)C)CN(C(=O)c1c(C)noc1C)C2 the result was Mtb cholesterol medium: -10.03% & 11.58%; Mtb glucose medium: 27.4% & 3.403%.
For CC(C)CNC(=O)c1cc2c(s1)CCN2S(C)(=O)=O the result was Mtb cholesterol medium: -13.35%; Mtb glucose medium: -6.569%.
For CCCNC(=O)c1nn(CC)cc1Cl the result was Mtb cholesterol medium: 21.76%; Mtb glucose medium: 26.57%.
For O=C(O)C(F)(F)F.O=C(O)C(F)(F)F.O=C(c1ccc[nH]1)N1CCc2c(COCc3ccncc3)cncc2C1 the result was Mtb cholesterol medium: 3.622%; Mtb glucose medium: -4.088% & 1.443%.
For Cc1ccc(C(=O)N2CC[C@@H](N(C)C)[C@@H]2Cc2cnn(C)c2)cn1.O=C(O)C(F)(F)F.O=C(O)C(F)(F)F the result was Mtb cholesterol medium: 10.1% & -5.244%; Mtb glucose medium: -12.52%.
For COc1c(C2CCCN2CC(=O)Nc2ccncc2)c(C)nn1C (stereo not shown) the result was Mtb cholesterol medium: -30.22%; Mtb glucose medium: -19.79%.
For CN(Cc1cccc(F)c1)C(=O)CN1CCOC(Cn2cncn2)C1 (stereo not shown) the result was Mtb cholesterol medium: 8.93%; Mtb glucose medium: 14.26%.
For Cc1cc(C2CCCN(CC(=O)N3CCCc4ccccc43)C2)n[nH]1 (stereo not shown) the result was Mtb cholesterol medium: -1.994%; Mtb glucose medium: -5.927%.
For O=C(COc1ccc(Br)cc1F)Nc1cn[nH]c1 the result was Mtb cholesterol medium: 15.9%; Mtb glucose medium: 6.595% & -8.426%.
For Cc1nnc(NCC2(c3ccc(Cl)cc3Cl)CCOCC2)c(C#N)c1C the result was Mtb cholesterol medium: -24.69%; Mtb glucose medium: 16.71%.
For CCCS(=O)(=O)N1CCOCC2(CCN(c3ccccn3)C2)C1.O=C(O)C(F)(F)F (stereo not shown) the result was Mtb cholesterol medium: 6.66%; Mtb glucose medium: 3.886%.

The first 2 entries again:

With [H][C@@]12C[C@H](C(=O)NCc3cccnc3)[C@@]([H])(CN(CC)C1)O2 the screen gave Mtb cholesterol medium: 0.007705%; Mtb glucose medium: 4.518%.
With Cc1ccc(C)c2c(C)c(C(=O)NCCCn3ccnn3)[nH]c12 the screen gave Mtb cholesterol medium: -37.19%; Mtb glucose medium: -41.1%.